One data set has as its system cytochrome P450. As to conditions: ref Eli Lilly and Company, 2019; cited from earlier work.
The target of another data set is STK16 (Homo sapiens, UniProt O75716). Put plainly: biochemical. The format is binding.

Protein sequences, listed by entry. Tags and fused reporters are not part of them.
UniProt O75716, whole entry: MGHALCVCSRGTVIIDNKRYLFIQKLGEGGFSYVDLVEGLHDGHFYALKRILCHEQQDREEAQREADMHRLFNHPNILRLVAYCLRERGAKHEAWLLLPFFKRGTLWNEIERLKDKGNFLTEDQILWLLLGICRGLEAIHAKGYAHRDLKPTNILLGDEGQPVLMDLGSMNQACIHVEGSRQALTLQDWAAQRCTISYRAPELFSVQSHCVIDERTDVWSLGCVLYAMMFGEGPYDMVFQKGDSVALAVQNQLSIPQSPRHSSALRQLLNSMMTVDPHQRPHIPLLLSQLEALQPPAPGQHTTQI

What is called Kd is a measure of binding affinity in units of concentration. Turning to `CCS(=O)(=O)N1CC(CC#N)(n2cc(-c3ncnc4[nH]ccc34)cn2)C1` [Baricitinib], in the data set on cytochrome P450, the “cytochrome P450 inhibitory activity” value is “low”. The compound further displayed a Kd on STK16 of 1100 nM.
